From publication PMC7492734

Chains of the proteins cited; added tags and fusions are not shown. Lines headed by an entry give the natural chain unless they say otherwise; changes in a name come on top. Residues count along the entry.
UniProt P05187: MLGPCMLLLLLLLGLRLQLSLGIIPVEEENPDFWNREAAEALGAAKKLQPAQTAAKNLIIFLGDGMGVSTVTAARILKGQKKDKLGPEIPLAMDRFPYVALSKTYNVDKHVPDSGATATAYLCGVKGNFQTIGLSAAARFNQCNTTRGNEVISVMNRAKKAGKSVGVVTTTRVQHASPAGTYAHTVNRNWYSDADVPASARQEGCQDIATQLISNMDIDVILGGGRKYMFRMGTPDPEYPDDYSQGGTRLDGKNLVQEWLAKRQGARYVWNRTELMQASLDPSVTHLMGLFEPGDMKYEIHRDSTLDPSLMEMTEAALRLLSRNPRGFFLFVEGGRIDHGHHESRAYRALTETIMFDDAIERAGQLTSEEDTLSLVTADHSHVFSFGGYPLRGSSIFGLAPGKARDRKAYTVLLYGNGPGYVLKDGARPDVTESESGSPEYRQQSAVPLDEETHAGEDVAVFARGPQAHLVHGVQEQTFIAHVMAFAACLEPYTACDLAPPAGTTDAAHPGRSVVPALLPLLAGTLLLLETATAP
UniProt P11021, residues 19-654: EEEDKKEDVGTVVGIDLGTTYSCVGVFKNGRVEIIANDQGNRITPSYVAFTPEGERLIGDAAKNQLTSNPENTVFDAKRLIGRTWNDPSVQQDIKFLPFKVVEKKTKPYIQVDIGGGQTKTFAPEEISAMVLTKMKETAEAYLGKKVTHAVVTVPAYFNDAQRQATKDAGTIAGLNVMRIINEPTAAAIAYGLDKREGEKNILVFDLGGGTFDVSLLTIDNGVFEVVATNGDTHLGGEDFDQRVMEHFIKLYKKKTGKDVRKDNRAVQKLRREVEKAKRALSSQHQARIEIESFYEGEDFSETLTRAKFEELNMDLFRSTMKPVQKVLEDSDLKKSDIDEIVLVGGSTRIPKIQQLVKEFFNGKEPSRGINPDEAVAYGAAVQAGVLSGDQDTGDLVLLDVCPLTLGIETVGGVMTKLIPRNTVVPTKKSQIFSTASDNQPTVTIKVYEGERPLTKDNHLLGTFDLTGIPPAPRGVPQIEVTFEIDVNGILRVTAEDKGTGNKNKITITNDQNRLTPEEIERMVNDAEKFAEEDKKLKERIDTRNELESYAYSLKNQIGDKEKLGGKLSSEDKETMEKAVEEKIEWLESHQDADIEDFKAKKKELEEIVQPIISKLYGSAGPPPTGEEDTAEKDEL

Target: C-terminal 2×Flag-tagged placental alkaline phosphatase (ALPP-2×Flag) (human) (UniProt P05187)
Assay: affinity purification with mass spectrometry; uninfected Flag-ALPP-overexpressing U-251 MG cells; Flag immunoprecipitate stained with silver and Coomassie; the distinctive 78-kDa protein identified by LC-MS

binding: binds
Substance: BIP (GRP78), endogenous (from UniProt P11021 19-654)

Results are given in words; binding and its absence hold for the method and conditions named. In cells and extracts the contact can be indirect. Here binding means that the protein was enriched with, or labelled near, the bait; the list need not be complete.
